Test in all cases: co-IP; TAP-tagged Upf1 purified from S. cerevisiae lysate on IgG-magnetic beads, 1 h at 4°C; Nmd4-HA detected by anti-HA immunoblot
For assay [1], the target named is T1, TAP-Upf1-FL-G377R (S. cerevisiae) (UniProt P30771).
T1 sequence: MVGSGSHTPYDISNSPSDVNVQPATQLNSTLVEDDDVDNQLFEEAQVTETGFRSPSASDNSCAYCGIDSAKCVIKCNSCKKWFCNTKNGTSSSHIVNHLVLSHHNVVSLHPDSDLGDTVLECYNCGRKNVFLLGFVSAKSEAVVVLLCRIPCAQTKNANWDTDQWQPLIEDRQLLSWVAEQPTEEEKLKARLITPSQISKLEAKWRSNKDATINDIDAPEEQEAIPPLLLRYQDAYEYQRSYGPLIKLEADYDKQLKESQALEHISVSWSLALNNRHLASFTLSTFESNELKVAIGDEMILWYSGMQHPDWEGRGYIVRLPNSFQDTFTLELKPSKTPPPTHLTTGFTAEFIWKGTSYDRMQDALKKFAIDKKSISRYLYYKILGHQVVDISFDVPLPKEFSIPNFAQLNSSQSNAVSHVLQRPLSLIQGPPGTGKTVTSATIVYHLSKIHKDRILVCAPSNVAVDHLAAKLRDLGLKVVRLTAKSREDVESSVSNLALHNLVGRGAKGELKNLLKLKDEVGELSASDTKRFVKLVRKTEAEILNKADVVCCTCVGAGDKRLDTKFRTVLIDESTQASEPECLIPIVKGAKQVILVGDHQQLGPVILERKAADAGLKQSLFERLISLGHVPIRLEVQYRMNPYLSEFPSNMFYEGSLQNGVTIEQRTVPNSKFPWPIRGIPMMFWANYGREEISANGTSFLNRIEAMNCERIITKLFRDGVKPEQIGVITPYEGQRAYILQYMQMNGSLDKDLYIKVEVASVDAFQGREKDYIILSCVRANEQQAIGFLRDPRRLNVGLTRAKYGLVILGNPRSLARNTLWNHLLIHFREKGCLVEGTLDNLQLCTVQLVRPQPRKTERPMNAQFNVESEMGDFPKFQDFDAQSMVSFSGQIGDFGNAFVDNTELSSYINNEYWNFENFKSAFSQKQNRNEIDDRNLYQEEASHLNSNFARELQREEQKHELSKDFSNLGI

Assay [2] has as its target T2, TAP-Upf1-FL-G243R (S. cerevisiae) (UniProt P30771).
T2 sequence: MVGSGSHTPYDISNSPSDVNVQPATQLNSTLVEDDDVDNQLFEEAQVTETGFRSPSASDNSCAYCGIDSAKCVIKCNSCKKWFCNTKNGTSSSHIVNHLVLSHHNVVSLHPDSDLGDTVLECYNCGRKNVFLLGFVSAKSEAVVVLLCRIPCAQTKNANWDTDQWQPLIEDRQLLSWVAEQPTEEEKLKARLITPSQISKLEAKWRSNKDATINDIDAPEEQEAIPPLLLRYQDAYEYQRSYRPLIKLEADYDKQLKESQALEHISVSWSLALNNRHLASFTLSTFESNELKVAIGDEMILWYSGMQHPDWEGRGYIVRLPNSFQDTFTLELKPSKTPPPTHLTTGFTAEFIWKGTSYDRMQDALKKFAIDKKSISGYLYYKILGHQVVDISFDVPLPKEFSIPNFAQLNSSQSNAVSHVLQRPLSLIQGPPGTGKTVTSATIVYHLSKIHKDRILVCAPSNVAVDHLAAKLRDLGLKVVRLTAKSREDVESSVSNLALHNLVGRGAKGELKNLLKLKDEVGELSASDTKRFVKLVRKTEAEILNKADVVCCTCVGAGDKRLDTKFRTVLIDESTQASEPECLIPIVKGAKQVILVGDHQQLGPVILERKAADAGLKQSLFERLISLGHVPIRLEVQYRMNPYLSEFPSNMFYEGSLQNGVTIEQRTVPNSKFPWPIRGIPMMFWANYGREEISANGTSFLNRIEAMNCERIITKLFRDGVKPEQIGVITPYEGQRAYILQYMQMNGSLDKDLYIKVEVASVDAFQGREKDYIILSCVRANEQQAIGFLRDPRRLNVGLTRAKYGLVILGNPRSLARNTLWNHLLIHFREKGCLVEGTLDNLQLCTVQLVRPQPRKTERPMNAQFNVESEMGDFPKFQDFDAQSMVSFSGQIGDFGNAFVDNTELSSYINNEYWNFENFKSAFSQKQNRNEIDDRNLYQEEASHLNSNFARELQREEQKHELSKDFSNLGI

Assay [3] deals with T3, Upf1-FL-TAP (S. cerevisiae) (S. cerevisiae) (UniProt P30771).
T3 sequence: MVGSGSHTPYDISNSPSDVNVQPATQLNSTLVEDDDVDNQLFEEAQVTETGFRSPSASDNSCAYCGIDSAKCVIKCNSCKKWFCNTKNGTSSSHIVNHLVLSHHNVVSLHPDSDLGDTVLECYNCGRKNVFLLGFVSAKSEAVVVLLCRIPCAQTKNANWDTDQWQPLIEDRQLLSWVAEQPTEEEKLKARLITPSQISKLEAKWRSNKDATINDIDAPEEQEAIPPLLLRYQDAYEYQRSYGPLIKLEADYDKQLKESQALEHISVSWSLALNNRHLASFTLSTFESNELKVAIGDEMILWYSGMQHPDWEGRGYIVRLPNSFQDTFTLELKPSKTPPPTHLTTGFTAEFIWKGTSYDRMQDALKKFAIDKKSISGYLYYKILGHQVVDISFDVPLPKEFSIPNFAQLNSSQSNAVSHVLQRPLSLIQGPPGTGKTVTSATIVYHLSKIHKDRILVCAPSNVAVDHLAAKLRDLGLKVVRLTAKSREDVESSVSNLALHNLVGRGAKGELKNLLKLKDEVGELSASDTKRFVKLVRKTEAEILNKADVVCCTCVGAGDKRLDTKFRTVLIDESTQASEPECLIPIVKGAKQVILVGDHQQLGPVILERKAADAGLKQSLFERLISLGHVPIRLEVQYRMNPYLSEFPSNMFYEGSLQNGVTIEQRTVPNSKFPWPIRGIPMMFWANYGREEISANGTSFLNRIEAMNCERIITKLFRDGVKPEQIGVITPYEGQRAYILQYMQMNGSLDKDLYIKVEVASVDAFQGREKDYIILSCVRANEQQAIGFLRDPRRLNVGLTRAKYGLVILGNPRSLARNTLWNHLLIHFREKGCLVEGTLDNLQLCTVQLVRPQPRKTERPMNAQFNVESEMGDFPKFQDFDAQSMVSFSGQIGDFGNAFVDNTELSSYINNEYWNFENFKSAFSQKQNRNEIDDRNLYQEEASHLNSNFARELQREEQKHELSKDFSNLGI

Assay [4] addresses T4, TAP-Upf1-FL (S. cerevisiae, N-terminal TAP tag, from plasmid) (S. cerevisiae) (UniProt P30771).
T4 sequence: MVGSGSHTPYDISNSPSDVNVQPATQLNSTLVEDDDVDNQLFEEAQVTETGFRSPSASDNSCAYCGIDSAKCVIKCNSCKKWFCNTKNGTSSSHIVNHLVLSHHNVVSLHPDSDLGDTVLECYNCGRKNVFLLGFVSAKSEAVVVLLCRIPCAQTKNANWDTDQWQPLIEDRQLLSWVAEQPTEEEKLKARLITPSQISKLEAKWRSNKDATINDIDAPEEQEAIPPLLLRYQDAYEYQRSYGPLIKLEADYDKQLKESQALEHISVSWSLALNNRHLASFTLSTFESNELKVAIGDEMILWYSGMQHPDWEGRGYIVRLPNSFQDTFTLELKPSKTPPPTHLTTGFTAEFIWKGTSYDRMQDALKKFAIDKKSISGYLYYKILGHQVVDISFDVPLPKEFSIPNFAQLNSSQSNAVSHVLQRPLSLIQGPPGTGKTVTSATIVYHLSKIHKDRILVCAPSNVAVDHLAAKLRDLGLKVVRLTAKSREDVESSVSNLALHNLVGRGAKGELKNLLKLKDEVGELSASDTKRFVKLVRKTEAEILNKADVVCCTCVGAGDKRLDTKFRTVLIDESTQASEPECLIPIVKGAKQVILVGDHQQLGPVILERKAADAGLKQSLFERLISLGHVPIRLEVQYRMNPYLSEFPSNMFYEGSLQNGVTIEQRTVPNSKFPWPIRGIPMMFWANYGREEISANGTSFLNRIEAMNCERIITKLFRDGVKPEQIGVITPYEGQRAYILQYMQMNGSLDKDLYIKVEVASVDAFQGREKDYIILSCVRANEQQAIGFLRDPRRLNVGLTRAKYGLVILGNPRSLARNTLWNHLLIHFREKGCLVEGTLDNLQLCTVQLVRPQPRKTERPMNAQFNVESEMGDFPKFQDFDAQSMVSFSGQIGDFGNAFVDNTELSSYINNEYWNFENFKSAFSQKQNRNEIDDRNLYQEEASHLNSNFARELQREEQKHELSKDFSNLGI

No constants are given. Whether binding was seen depends on the method and setting. Binding seen in cells or lysates may run through a third protein. Some results given as binding are weak or reduced against the parent protein; the word gives no strength. Tags and fused reporters may be left off the sequences shown.

B1: His6-ZZ-Nmd4 full-length protein (S. cerevisiae) (natural protein, UniProt Q12129 1-218, looked up)
chain: MTQYNFIIDASAFEKGLGNIKRWCSDCTEAVTLNFYIPTFTLNELDFLQQRRKSFAARESLKFIDRLDDSKFANLKVFIEFPEVLDIILWSDVMEHNDSSGKINIAKLPKRLKNLLKSCIYKCYLEGNEGLHWFLISEDPQIREMAMQCNIPSCSIVDVDSILSKDMNDKSFRESEKFNNMMLKNGTKEESENGREIIRTNFNKTVYASRGTGELWSP
notes: also called His6-ZZ-Nmd4 FL; full-length Nmd4; source: E. coli BL21 (DE3) Gold, purified (Ni-NTA, HiTrap Heparin, S75 SEC); not shown: His6, N-terminal, kept; ZZ (tandem Z-domain of S. aureus protein A), N-terminal, kept
On to B1, for which the binding entry was “binds weakly” in assay [1], “binds weakly” in assay [2], “binds” in assay [3] and “binds” in assay [4].

B2: Nmd4-PIN-HA (Nmd4-[1–168], genomic C-terminal 3HA tag) (domain or fragment, UniProt Q12129 1-168)
chain: MTQYNFIIDASAFEKGLGNIKRWCSDCTEAVTLNFYIPTFTLNELDFLQQRRKSFAARESLKFIDRLDDSKFANLKVFIEFPEVLDIILWSDVMEHNDSSGKINIAKLPKRLKNLLKSCIYKCYLEGNEGLHWFLISEDPQIREMAMQCNIPSCSIVDVDSILSKDMN
As to B2, in assay [3], the binding result is given as “no binding”.

For the origin of these results see article PMC11463774, “Structure of the Nmd4-Upf1 complex supports conservation of the nonsense-mediated mRNA decay pathway between yeast and humans” (PLOS Biology, 2024).
